Values from PubChem BioAssay AID1224830 (NIAID, 2016)
Purpose: 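Host factors that control LPS-induced TNF expression in human macrophages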 (primary screen). Cell system: human THP-1 monocytic leukaemia cells, TNF dual-luciferase reporter clone, PMA-differentiated to macrophage-like cells. Knock-down reagent: siRNA pool against human genes, 50 nM. Duration: LPS for 4 h, given about 3 days after siRNA transfection. Conditions: bacterial LPS (TLR4 ligand), 10 ng/ml. Measurement: 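Ratio of firefly to renilla light, scaled to the plate median and expressed as a robust z-score per replicate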. Direction: TNF reporter robust z-score: higher = stronger TNF reporter response to LPS. Call rule: 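a well is active when its z-score exceeds 2.8 or falls below -1.5; control wells carry no call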.
The whole screen tested about 18,000 reagents; below is a random part of them. Over the whole deposit, about 2,900 (16%) are marked active. 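Calls are made per well; low scores hint the gene aids the LPS response, high scores that it dampens it.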 Entries without a mark were called inactive. Repeated entries: four replicate wells of each siRNA pool.

{"target":"ARRDC1","TNF reporter robust z-score":1.4}
{"target":"ARRDC1","TNF reporter robust z-score":1.32}
{"target":"ARRDC1","TNF reporter robust z-score":"2.9 (active)"}
{"target":"ARRDC1","TNF reporter robust z-score":0.44}
{"target":"ZNF691","TNF reporter robust z-score":0.14}
{"target":"ZNF691","TNF reporter robust z-score":0.22}
{"target":"ZNF691","TNF reporter robust z-score":0.2}
{"target":"ZNF691","TNF reporter robust z-score":1.11}
{"target":"LCE3B","TNF reporter robust z-score":-0.47}
{"target":"LCE3B","TNF reporter robust z-score":0.4}
{"target":"LCE3B","TNF reporter robust z-score":-0.58}
{"target":"LCE3B","TNF reporter robust z-score":-0.49}

Next part (2 carried over from the part before).
{"target":"LCE3B","TNF reporter robust z-score":-0.58}
{"target":"LCE3B","TNF reporter robust z-score":-0.49}
{"target":"ACADVL","TNF reporter robust z-score":0.16}
{"target":"ACADVL","TNF reporter robust z-score":0.3}
{"target":"ACADVL","TNF reporter robust z-score":0.11}
{"target":"ACADVL","TNF reporter robust z-score":0.64}
{"target":"FGFR4","TNF reporter robust z-score":-0.9}
{"target":"FGFR4","TNF reporter robust z-score":-0.18}
{"target":"FGFR4","TNF reporter robust z-score":-0.42}
{"target":"FGFR4","TNF reporter robust z-score":0.4}
